The text below walks through data of paper PMC10304383.

Protein sequences, listed by entry. Tags and fused reporters are not part of them.
UniProt P35221: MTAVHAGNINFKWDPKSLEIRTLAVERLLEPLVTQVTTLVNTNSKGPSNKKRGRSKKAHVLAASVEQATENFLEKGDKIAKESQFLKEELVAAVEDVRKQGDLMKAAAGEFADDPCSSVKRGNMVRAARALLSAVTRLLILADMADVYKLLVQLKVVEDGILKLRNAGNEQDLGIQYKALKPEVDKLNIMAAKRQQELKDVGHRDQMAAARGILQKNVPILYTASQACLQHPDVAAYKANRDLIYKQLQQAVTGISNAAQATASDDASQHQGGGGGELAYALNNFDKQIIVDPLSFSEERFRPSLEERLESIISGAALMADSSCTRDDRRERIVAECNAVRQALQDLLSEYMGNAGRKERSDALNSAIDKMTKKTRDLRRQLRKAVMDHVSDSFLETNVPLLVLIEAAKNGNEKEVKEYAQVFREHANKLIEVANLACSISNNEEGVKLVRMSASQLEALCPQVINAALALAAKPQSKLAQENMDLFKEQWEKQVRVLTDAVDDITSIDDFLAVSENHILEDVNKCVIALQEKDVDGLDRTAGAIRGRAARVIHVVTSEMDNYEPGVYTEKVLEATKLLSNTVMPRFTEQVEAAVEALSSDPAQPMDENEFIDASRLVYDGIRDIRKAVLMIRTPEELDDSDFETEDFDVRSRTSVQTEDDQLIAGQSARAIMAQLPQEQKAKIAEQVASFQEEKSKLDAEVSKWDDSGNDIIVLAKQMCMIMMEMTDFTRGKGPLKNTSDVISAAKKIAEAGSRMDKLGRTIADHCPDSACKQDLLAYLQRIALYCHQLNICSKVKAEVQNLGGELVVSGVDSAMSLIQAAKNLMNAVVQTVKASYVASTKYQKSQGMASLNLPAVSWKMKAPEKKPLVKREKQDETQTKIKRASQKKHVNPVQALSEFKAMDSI
UniProt Q9NR12: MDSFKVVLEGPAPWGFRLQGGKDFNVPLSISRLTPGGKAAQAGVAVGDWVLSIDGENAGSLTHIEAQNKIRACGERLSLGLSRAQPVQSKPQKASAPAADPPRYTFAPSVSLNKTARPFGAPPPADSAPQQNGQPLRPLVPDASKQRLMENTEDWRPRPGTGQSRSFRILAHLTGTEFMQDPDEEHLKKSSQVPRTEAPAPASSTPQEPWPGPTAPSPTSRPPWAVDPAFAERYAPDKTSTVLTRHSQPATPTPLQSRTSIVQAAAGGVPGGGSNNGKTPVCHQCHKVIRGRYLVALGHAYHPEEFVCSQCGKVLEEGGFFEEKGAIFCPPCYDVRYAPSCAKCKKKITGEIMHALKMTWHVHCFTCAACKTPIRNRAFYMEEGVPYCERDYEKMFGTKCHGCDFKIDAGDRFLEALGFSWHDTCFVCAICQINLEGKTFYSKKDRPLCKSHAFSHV

Assay [1] concerns the target Flag-tagged human α‐catenin (human) (UniProt P35221). Kind of assay: co-IP; extracts of HLF cells transfected with Flag-tagged human α-catenin, harvested 48 h after transfection; antibody on Dynabeads Protein G, 4°C overnight; detection by Western immunoblotting.
Assay [2] addresses α‐catenin (human (endogenous in HLF and Hep3B)) (UniProt P35221). The assay can be described thus: proximity ligation; DuoLink in situ PLA on fixed, permeabilised HLF and Hep3B cells with α-catenin/CEP55 and α-catenin/PDLIM7 antibody combinations; single antibodies as negative controls.

These are yes or no findings as the source states them, for the method shown. In cells and extracts the contact can be indirect. Some entries that bind do so weakly or less than the wild type.

Consider “PDZ and LIM domain 7 (from UniProt Q9NR12 1-457)”, for which the binding entry in assay [1] and in assay [2] was “binds” each time.

B1: centrosomal protein 55 (protein, UniProt Q53EZ4 1-464)
chain: MSSRSTKDLIKSKWGSKPSNSKSETTLEKLKGEIAHLKTSVDEITSGKGKLTDKERHRLLEKIRVLEAEKEKNAYQLTEKDKEIQRLRDQLKARYSTTTLLEQLEETTREGERREQVLKALSEEKDVLKQQLSAATSRIAELESKTNTLRLSQTVAPNCFNSSINNIHEMEIQLKDALEKNQQWLVYDQQREVYVKGLLAKIFELEKKTETAAHSLPQQTKKPESEGYLQEEKQKCYNDLLASAKKDLEVERQTITQLSFELSEFRRKYEETQKEVHNLNQLLYSQRRADVQHLEDDRHKTEKIQKLREENDIARGKLEEEKKRSEELLSQVQFLYTSLLKQQEEQTRVALLEQQMQACTLDFENEKLDRQHVQHQLHVILKELRKARNQITQLESLKQLHEFAITEPLVTFQGETENREKVAASPKSPTAALNESLVECPKCNIQYPATEHRDLLVHVEYCSK
With B1, the binding entry in assay [1] and in assay [2] was “binds” each time.
